Source: patent US20210261642A1, “SOLUBILITY OF GLP-1 PEPTIDE” (Novo Nordisk A/S, priority 2017, published 2021)
Further values from the same series stand in other lists.

Assay: Assay (I): Determination of Solubility (96-well plate, pH 3.0-11.0, organic solvent 0-70% w/w, UV absorption at 280 nm)
Format: physicochemical
Description: Assay (I): Determination of Solubility
96-Well Plate Preparation
96-well plates containing target peptide in a solid form were prepared in one of two ways:
Method 1 (evaporation): Addition of 100 μl stock solution of said peptide at a concentration of 4-6 mg/ml to each well of a 96-well half area plate (150 μl well size). Subsequently the solvent was evaporated by applying a vacuum until the solvent was completely removed.
Method 2 (precipitation): Addition of a certain volume of a stock solution of said peptide containing to each well of a 96-well half area plate followed by the addition of a certain volume of concentrated phosphoric acid to obtain a pH of 4.6 followed by addition of a certain volume of ethanol resulting in a final ethanol concentration of 20% v/v. Subsequently the plate was stored at 4° C. for 1 h and then centrifuged at 4,000 rpm for 20 min. Finally the supernatant was removed. The concentration of the stock solution was chosen in a way that the final amount of peptide after supernatant removal was >0.4 mg per well.
In both cases the stock solution was prepared by adding de-ionized water to a certain amount of powder of said peptide followed by a stepwise addition of small amounts of a concentrated sodium hydroxide solution until said peptide was completely in solution.
To determine solubility of a target peptide at different pH and organic solvent concentrations, two different buffer systems were used in independent experiments to cover the whole range from pH 3.0 to pH 11.0. Buffer system 1 covers pH 3.0-7.5 and buffer system 2 covers pH 7.5-11.0. For each buffer system 96 different solvent compositions were premixed in the following way: • 1. A low pH buffer (adjusted to either pH 3.0 or pH 7.5) and a high pH buffer (adjusted to either pH 7.5 or pH 11.0) were mixed at 8 different ratios to obtain values between pH 3.0 and pH 7.5 or pH 7.5 and pH 11.0, respectively. The total volume after mixing was 300 μl. • 2. 12 different amounts of organic solvent were then added to these buffers to obtain organic solvent (e.g. ethanol) concentrations between 0 and 70% w/w. • 3. Water was then added to obtain a total weight of 1.0 g of solvent in each well.
After preparing the 96 different solvent systems, 100 μl of each system was transferred to the 96-well plate containing the solid form of the target peptide (prepared as described in the section “96-well plate preparation”). The plate was then stored at a given temperature (between 5° C. and 70° C.) for a given time on a rotating shaker set to 400 rpm. At regular time intervals the plate was centrifuged (4,000 rpm for 10 min) and a 10 μl sample was taken from each well. The samples were then analysed by UV absorption at 280 nm for peptide quantification. Peptide concentration results are given as UV absorption at 280 nm of the sample subtracted UV absorption at 280 nm of a well comprising 10 μl water.
The buffers used were as follows: • Buffer system 1 (for the pH range from pH 3.0-7.5)
• Buffer system 2 (for the pH ranae from pH 7.5-11.0)
Solubility of liraglutide was determined using Assay (I) described herein. Liraglutide was prepared using Method 1 (evaporation) or Method 2 (precipitation) as described in subsection “96-well plate preparation”.

[1] = MeCN 63.6% w/w, pH 3.0, RT, Method 1
[2] = MeCN 63.6% w/w, pH 3.6, 5° C., Method 1
[3] = MeCN 63.6% w/w, pH 3.6, RT, Method 1
[4] = MeCN 63.6% w/w, pH 4.3, 5° C., Method 1
[5] = MeCN 63.6% w/w, pH 4.3, 70° C., Method 1
[6] = MeCN 63.6% w/w, pH 4.3, RT, Method 1
[7] = MeCN 63.6% w/w, pH 4.9, 5° C., Method 1
[8] = MeCN 63.6% w/w, pH 4.9, 70° C., Method 1
[9] = MeCN 63.6% w/w, pH 4.9, RT, Method 1
[10] = MeCN 63.6% w/w, pH 5.6, 5° C., Method 1
[11] = MeCN 63.6% w/w, pH 5.6, 70° C., Method 1
[12] = MeCN 63.6% w/w, pH 5.6, RT, Method 1
[13] = MeCN 63.6% w/w, pH 6.2, 5° C., Method 1
[14] = MeCN 63.6% w/w, pH 6.2, 70° C., Method 1
[15] = MeCN 63.6% w/w, pH 6.2, RT, Method 1
[16] = MeCN 63.6% w/w, pH 6.9, 5° C., Method 1
[17] = MeCN 63.6% w/w, pH 6.9, 70° C., Method 1
[18] = MeCN 63.6% w/w, pH 6.9, RT, Method 1
[19] = MeCN 63.6% w/w, pH 7.5, 5° C., Method 1
[20] = MeCN 63.6% w/w, pH 7.5, 70° C., Method 1
[21] = MeCN 63.6% w/w, pH 7.5, RT, Method 1
[22] = MeCN 63.6% w/w, pH 8.0, 70° C., Method 1 (evaporation)
[23] = MeCN 63.6% w/w, pH 8.0, RT, Method 1
[24] = MeCN 63.6% w/w, pH 8.5, 70° C., Method 1 (evaporation)
[25] = MeCN 63.6% w/w, pH 8.5, RT, Method 1
[26] = MeCN 63.6% w/w, pH 9.0, 70° C., Method 1 (evaporation)
[27] = MeCN 63.6% w/w, pH 9.0, RT, Method 1
[28] = MeCN 63.6% w/w, pH 9.5, 70° C., Method 1 (evaporation)
[29] = MeCN 63.6% w/w, pH 9.5, RT, Method 1
[30] = MeCN 63.6% w/w, pH 10.0, 70° C., Method 1 (evaporation)
[31] = MeCN 63.6% w/w, pH 10.0, RT, Method 1
[32] = MeCN 63.6% w/w, pH 10.5, 70° C., Method 1 (evaporation)
[33] = MeCN 63.6% w/w, pH 10.5, RT, Method 1
[34] = MeCN 63.6% w/w, pH 11.0, 70° C., Method 1 (evaporation)
[35] = MeCN 63.6% w/w, pH 11.0, RT, Method 1
[36] = MeCN 70.0% w/w, pH 3.0, 5° C., Method 1
[37] = MeCN 70.0% w/w, pH 3.0, 70° C., Method 1
[38] = MeCN 70.0% w/w, pH 3.0, RT, Method 1

## CCCCCCCCCCCCCCCC(=O)N[C@@H](CCC(=O)NCCCC[C@H](NC(=O)[C@H](C)NC(=O)[C@H](C)NC(=O)[C@H](CCC(N)=O)NC(=O)CNC(=O)[C@H](CCC(=O)O)NC(=O)[C@H](CC(C)C)NC(=O)[C@H](Cc1ccc(O)cc1)NC(=O)[C@H](CO)NC(=O)[C@H](CO)NC(=O)[C@@H](NC(=O)[C@H](CC(=O)O)NC(=O)[C@H](CO)NC(=O)[C@@H](NC(=O)[C@H](Cc1ccccc1)NC(=O)[C@@H](NC(=O)CNC(=O)[C@H](CCC(=O)O)NC(=O)[C@H](C)NC(=O)[C@@H](N)Cc1cnc[nH]1)[C@@H](C)O)[C@@H](C)O)C(C)C)C(=O)N[C@@H](CCC(=O)O)C(=O)N[C@@H](Cc1ccccc1)C(=O)N[C@H](C(=O)N[C@@H](C)C(=O)N[C@@H](Cc1c[nH]c2ccccc12)C(=O)N[C@@H](CC(C)C)C(=O)N[C@H](C(=O)N[C@@H](CCCNC(=N)N)C(=O)NCC(=O)N[C@@H](CCCNC(=N)N)C(=O)NCC(=O)O)C(C)C)[C@@H](C)CC)C(=O)O [liraglutide, Arg34,Lys26-(N-epsilon-(gamma-L-glutamyl(N-alfa-hexadecanoyl)))-GLP-1(7-37)]
[1]
  Peptide concentration after 180 min: 0.8 mg/mL
  Peptide concentration after 24 h: 1.1 mg/mL
[2]
  Peptide concentration after 5 min: 0.2 mg/mL
  Peptide concentration after 180 min: 0.4 mg/mL
  Peptide concentration after 24 h: 0.7 mg/mL
MeCN 63.6% w/w, pH 3.6, 70° C., Method 1
  Peptide concentration after 5 min: 0.6 mg/mL
[3]
  Peptide concentration after 5 min: 0.2 mg/mL
  Peptide concentration after 180 min: 0.3 mg/mL
  Peptide concentration after 24 h: 0.4 mg/mL
[4]
  Peptide concentration after 5 min: 0.2 mg/mL
  Peptide concentration after 180 min: 0.4 mg/mL
  Peptide concentration after 24 h: 0.6 mg/mL
[5]
  Peptide concentration after 5 min: 0.5 mg/mL
  Peptide concentration after 180 min: 1.8 mg/mL
[6]
  Peptide concentration after 5 min: 0.2 mg/mL
  Peptide concentration after 180 min: 0.3 mg/mL
  Peptide concentration after 24 h: 0.4 mg/mL
[7]
  Peptide concentration after 5 min: 0.2 mg/mL
  Peptide concentration after 180 min: 0.4 mg/mL
  Peptide concentration after 24 h: 0.5 mg/mL
[8]
  Peptide concentration after 5 min: 0.5 mg/mL
  Peptide concentration after 180 min: 1.7 mg/mL
[9]
  Peptide concentration after 5 min: 0.2 mg/mL
  Peptide concentration after 180 min: 0.4 mg/mL
  Peptide concentration after 24 h: 0.3 mg/mL
[10]
  Peptide concentration after 5 min: 0.3 mg/mL
  Peptide concentration after 180 min: 0.4 mg/mL
  Peptide concentration after 24 h: 0.6 mg/mL
[11]
  Peptide concentration after 5 min: 0.7 mg/mL
  Peptide concentration after 180 min: 1.7 mg/mL
[12]
  Peptide concentration after 5 min: 0.3 mg/mL
  Peptide concentration after 180 min: 0.4 mg/mL
  Peptide concentration after 24 h: 0.5 mg/mL
[13]
  Peptide concentration after 5 min: 0.2 mg/mL
  Peptide concentration after 180 min: 0.4 mg/mL
  Peptide concentration after 24 h: 0.6 mg/mL
[14]
  Peptide concentration after 5 min: 0.5 mg/mL
  Peptide concentration after 180 min: 2.2 mg/mL
[15]
  Peptide concentration after 5 min: 0.3 mg/mL
  Peptide concentration after 180 min: 0.4 mg/mL
  Peptide concentration after 24 h: 0.4 mg/mL
[16]
  Peptide concentration after 5 min: 0.2 mg/mL
  Peptide concentration after 180 min: 0.4 mg/mL
  Peptide concentration after 24 h: 0.6 mg/mL
[17]
  Peptide concentration after 5 min: 0.5 mg/mL
  Peptide concentration after 180 min: 2.4 mg/mL
[18]
  Peptide concentration after 5 min: 0.2 mg/mL
  Peptide concentration after 180 min: 0.4 mg/mL
  Peptide concentration after 24 h: 0.5 mg/mL
[19]
  Peptide concentration after 5 min: 0.4 mg/mL
  Peptide concentration after 180 min: 0.5 mg/mL
  Peptide concentration after 24 h: 1.6 mg/mL
[20]
  Peptide concentration after 5 min: 1.9 mg/mL
  Peptide concentration after 180 min: >4.0 mg/mL
[21]
  Peptide concentration after 5 min: 0.5 mg/mL
  Peptide concentration after 180 min: 1.6 mg/mL
  Peptide concentration after 24 h: 3.1 mg/mL
[22]
  Peptide concentration after 5 min: 2.0 mg/mL
  Peptide concentration after 180 min: >4.0 mg/mL
[23]
  Peptide concentration after 5 min: 0.3 mg/mL
  Peptide concentration after 180 min: 1.2 mg/mL
  Peptide concentration after 24 h: 3.3 mg/mL
[24]
  Peptide concentration after 5 min: 2.2 mg/mL
  Peptide concentration after 180 min: >4.0 mg/mL
[25]
  Peptide concentration after 5 min: 0.3 mg/mL
  Peptide concentration after 180 min: 1.3 mg/mL
  Peptide concentration after 24 h: 2.9 mg/mL
[26]
  Peptide concentration after 5 min: 1.4 mg/mL
  Peptide concentration after 180 min: >4.0 mg/mL
[27]
  Peptide concentration after 5 min: 0.3 mg/mL
  Peptide concentration after 180 min: 1.5 mg/mL
  Peptide concentration after 24 h: >4.0 mg/mL
[28]
  Peptide concentration after 5 min: 2.9 mg/mL
  Peptide concentration after 180 min: >4.0 mg/mL
[29]
  Peptide concentration after 5 min: 0.3 mg/mL
  Peptide concentration after 180 min: 1.6 mg/mL
  Peptide concentration after 24 h: >4.0 mg/mL
[30]
  Peptide concentration after 5 min: 1.0 mg/mL
  Peptide concentration after 180 min: >4.0 mg/mL
[31]
  Peptide concentration after 5 min: 0.4 mg/mL
  Peptide concentration after 180 min: 0.6 mg/mL
  Peptide concentration after 24 h: 1.6 mg/mL
[32]
  Peptide concentration after 5 min: 0.9 mg/mL
  Peptide concentration after 180 min: >4.0 mg/mL
[33]
  Peptide concentration after 5 min: 0.4 mg/mL
  Peptide concentration after 180 min: 0.6 mg/mL
  Peptide concentration after 24 h: 1.8 mg/mL
[34]
  Peptide concentration after 5 min: 2.4 mg/mL
  Peptide concentration after 180 min: >4.0 mg/mL
[35]
  Peptide concentration after 5 min: 0.4 mg/mL
  Peptide concentration after 180 min: 1.6 mg/mL
  Peptide concentration after 24 h: 0.9 mg/mL
[36]
  Peptide concentration after 5 min: 0.4 mg/mL
  Peptide concentration after 180 min: 0.5 mg/mL
  Peptide concentration after 24 h: 1.0 mg/mL
[37]
  Peptide concentration after 5 min: 0.6 mg/mL
  Peptide concentration after 180 min: 2.9 mg/mL
[38]
  Peptide concentration after 5 min: 0.4 mg/mL
  Peptide concentration after 180 min: 0.5 mg/mL
